Measured values taken from PMC12045048.
Results are given in words; binding and its absence hold for the method and conditions named. In cells and extracts the contact can be indirect. Some binding calls cover weakened binding; strength is not graded here.

Amino acid sequences for entries named in this document (tags omitted).
UniProt Q96S21: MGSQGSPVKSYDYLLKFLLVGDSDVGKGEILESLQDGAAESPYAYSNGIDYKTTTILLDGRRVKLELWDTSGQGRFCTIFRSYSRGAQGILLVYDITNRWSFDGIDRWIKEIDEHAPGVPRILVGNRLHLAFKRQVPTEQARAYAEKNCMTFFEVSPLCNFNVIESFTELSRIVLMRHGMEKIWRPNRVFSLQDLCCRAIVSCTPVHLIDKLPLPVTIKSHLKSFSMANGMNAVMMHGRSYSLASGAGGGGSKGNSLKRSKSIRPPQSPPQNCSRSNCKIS
UniProt Q93034: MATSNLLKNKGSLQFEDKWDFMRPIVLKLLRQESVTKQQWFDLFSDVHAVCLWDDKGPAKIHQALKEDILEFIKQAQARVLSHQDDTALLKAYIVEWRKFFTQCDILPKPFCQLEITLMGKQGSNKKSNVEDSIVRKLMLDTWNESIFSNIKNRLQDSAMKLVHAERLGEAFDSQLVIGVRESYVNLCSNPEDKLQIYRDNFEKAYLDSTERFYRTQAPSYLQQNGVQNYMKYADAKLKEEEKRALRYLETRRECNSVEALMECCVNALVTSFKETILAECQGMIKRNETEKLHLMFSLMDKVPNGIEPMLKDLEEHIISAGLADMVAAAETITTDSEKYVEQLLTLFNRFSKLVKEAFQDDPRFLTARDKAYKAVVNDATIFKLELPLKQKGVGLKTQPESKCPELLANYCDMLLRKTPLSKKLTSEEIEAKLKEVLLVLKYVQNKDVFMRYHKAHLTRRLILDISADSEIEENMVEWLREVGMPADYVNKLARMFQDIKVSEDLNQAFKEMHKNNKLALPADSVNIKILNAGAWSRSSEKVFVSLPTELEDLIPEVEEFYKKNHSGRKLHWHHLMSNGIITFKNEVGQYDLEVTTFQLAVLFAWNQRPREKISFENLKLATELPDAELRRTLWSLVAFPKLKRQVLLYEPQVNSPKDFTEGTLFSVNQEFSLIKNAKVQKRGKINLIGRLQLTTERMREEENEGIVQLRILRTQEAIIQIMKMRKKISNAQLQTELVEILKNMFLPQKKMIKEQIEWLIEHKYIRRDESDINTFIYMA

Target: FLAG–Rab40c wild-type (WT) in 293T cells (human) (UniProt Q96S21)
Test: co-IP; 293T cells transfected with a FLAG-tagged Rab40 protein (in Fig. 3C alone or with HA–AMBRA1 or HA–AMBRA1-ΔN), anti-FLAG precipitation, blotted for the endogenous partner (AMBRA1 or cullin-5); lysis in 20 mM Tris-HCl pH 7.4, 150 mM NaCl, 2 mM EDTA, 1% Triton X-100, 10% glycerol; washes with lysis buffer plus 0.5 M NaCl

binding: binds
Substance: cullin-5, endogenous in 293T cells (from UniProt Q93034 1-780)
